Literature values, collected in US7645795B2, “Method for treating amyotrophic lateral sclerosis” (BodyBio, Inc, priority 2004, dated 2010).
At least one compound was matched to its structure with a doubt left.

Tested on: "SOD1" mouse model of ALS

CN(C)c1ccc(O)c2c1C[C@H]1C[C@H]3[C@H](N(C)C)C(O)=C(C(N)=O)C(=O)[C@@]3(O)C(O)=C1C2=O [minocycline]
Effect on onset and progression of ALS symptoms: delay the onset and slow the progression of ALS symptoms
